Reference: EP2899279A1
These are yes or no findings as the source states them, for the method shown. Where a sequence is shown, tags or fusion partners need not be part of it.

Biological target: Arabis mosaic virus isolate S (Arabis mosaic virus, isolate S)
Test: DAS-ELISA: virus captured by anti-ArMV polyclonals, StrepII tagged Nb23 as detection antibody

B1: StrepII tagged Nb23 (VHH, not shown: small tags and cut ends)
VHH: QVQLQESGGGSVQVGGSLRVACAASGDTFSGYLAAWFRQAPGKGREGVAAINSKRHTTSYADSVKGRFTISKDNADNIMYLEMNSLKPEDTAIYYCAAADAIGLAEYWSTPTLSAARYKYWGQGTQVTVSS
In the case of B1, the binding is reported as “no binding (tested: 1 µg/ml)”.
